These are yes or no findings as the source states them, for the method shown. Binding seen in cells or lysates may run through a third protein. Some binding calls cover weakened binding; strength is not graded here. Tags and fused reporters may be left off the sequences shown.
Experiments:
Assay in all cases: FRET or BRET; intermolecular FlAsH-BRET saturation in HEK293 cells: fixed amount of WHRN-Nluc, increasing ADGRV1-FlAsH or USH2A-FlAsH; 2.5 µM FlAsH-EDT2, 5 µM coelenterazine-h; net BRET Em530/Em485
[1] = target: T1, WHRN-Nluc (Z1-L) L209A (mouse) (UniProt Q80VW5)
T1 sequence: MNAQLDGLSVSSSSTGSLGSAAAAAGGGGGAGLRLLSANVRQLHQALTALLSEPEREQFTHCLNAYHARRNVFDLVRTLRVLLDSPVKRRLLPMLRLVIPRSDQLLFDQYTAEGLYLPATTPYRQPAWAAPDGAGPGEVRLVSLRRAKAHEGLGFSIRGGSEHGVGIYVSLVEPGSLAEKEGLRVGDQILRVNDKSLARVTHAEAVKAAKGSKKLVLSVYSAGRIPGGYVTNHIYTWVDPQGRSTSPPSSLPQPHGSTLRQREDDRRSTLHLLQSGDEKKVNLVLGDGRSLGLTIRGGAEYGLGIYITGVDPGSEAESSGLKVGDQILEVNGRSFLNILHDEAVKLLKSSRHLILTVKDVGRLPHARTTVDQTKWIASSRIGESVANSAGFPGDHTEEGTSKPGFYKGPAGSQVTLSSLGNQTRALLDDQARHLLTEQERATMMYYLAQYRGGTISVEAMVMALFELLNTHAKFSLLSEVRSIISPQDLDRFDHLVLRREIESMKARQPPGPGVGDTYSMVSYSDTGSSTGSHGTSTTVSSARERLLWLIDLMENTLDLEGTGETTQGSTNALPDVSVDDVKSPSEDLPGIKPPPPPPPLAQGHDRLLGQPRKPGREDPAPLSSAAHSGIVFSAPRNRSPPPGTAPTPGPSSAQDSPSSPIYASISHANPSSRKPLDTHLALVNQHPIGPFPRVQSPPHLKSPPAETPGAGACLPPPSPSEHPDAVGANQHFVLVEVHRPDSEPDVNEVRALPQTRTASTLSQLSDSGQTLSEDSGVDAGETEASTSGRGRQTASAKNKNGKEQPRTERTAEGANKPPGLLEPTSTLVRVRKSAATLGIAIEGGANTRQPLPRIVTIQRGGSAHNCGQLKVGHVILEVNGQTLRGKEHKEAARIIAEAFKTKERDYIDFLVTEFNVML

[2] = target: T2, WHRN-Nluc (Z1-L) K210A (mouse) (UniProt Q80VW5)
T2 sequence: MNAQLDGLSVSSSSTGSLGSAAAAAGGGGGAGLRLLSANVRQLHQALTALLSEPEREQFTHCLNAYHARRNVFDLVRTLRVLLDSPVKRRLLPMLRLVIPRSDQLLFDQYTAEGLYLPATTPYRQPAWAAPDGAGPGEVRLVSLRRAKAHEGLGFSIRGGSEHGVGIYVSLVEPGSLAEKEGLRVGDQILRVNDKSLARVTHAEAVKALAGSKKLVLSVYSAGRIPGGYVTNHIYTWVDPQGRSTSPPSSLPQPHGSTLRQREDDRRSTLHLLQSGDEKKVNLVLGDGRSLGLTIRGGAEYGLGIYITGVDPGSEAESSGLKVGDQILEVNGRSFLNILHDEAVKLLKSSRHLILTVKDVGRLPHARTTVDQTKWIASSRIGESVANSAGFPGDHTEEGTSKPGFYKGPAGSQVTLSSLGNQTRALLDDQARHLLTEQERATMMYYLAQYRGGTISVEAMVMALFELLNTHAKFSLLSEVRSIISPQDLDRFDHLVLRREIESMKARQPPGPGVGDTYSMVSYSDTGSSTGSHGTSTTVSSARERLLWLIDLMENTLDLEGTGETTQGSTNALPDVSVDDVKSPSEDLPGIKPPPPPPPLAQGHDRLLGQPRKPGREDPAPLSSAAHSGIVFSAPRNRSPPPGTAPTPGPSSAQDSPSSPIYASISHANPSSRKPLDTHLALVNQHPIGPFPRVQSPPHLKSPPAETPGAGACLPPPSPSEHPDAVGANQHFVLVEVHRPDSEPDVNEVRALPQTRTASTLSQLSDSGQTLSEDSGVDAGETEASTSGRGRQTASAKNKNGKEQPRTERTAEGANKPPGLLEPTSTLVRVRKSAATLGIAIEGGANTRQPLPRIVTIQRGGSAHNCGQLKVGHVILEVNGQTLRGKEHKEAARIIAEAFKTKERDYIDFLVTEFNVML

WHRN-Nluc Z1-L (mouse) = target: T3, WHRN-Nluc Z1-L (mouse) (UniProt Q80VW5)
T3 sequence: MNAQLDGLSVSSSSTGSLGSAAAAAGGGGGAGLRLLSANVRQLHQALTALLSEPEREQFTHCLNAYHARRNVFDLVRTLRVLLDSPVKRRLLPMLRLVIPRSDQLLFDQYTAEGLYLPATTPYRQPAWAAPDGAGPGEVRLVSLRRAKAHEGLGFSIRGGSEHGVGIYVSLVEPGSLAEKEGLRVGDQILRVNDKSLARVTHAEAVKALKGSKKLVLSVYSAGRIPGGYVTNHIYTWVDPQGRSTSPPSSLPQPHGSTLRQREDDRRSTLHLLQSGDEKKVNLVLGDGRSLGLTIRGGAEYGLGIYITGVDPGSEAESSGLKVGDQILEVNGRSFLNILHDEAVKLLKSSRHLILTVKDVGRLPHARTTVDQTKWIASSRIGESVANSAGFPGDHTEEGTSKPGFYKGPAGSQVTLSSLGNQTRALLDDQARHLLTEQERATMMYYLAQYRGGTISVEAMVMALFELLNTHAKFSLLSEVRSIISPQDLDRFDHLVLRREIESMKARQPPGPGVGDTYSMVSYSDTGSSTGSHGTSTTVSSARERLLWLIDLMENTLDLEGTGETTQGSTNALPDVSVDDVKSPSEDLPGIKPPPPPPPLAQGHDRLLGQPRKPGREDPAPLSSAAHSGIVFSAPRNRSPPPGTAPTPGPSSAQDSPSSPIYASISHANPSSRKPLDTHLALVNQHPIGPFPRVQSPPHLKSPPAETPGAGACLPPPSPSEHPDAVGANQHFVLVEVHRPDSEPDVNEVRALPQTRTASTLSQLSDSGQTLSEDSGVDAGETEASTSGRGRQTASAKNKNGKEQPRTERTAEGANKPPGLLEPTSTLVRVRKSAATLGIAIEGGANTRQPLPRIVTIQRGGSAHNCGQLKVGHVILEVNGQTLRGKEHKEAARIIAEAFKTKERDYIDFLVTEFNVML

binding [1]: binds | binding [2]: binds | binding (WHRN-Nluc Z1-L (mouse)): binds
B1: USH2A-FlAsH (domain or fragment, UniProt Q2QI47 4819-5193)
chain: PPSGLSPPQVQTLGSRMASVHWTPPLLPNGVIHSYELQLQRACPPDSAPRCPPSHTERKYWGPGHRASLAGLQPNTAYGVQVVAYNEAGSTASGWTNFSTKKEMPQYQALFSVDSNASMVWVDWSGTFLLNGHLKEYVVTDGGRRVYSGLDTTLYIPRMVDKIFFFQVTCTTDIGSVKTPLVQYDAATGSGLVLTTPGEKKGAGTKSTEFYSELWFIMVMAVVGLILLAIFLSLILQRKIHKEPCIRERPPLVPLQKRMTPLSVYPPGETHVGLADTRLPRSGTPMSIRSSQSVSVLRIPSQSQLSHAYSQSSLHRSVSQLMDMADKKVVTEDSLWETIMGHSSGLYVDEEELMNAIKGFSSVTKEHTAFTDTHL
modifications: FlAsH-EDT2 label on the CCPGCC motif

From paper PMC10238197, “Deafness‐Associated ADGRV1 Mutation Impairs USH2A Stability through Improper Phosphorylation of WHRN and WDSUB1 Recruitment” (Advanced Science, 2023)
